This passage reports binding results from publication PMC9321973.

Amino acid sequences for entries named in this document (tags omitted). Residues count along the entry.
UniProt P03496, residues 79-230: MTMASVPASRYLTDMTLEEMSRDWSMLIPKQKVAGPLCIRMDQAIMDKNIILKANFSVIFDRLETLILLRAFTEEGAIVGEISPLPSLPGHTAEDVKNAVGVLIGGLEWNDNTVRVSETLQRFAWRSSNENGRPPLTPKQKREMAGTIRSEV

The assay has as its target 3×FLAG-tagged N-terminus-truncated NS1 protein (amino acids 79–230) of influenza A virus PR8(H1N1) (influenza virus A/PR8/34 (H1N1)) (UniProt P03496). In words: affinity purification with mass spectrometry.

Results are given in words; binding and its absence hold for the method and conditions named. In cells and extracts the contact can be indirect. A yes stands for co-enrichment or nearness to the bait. Other partners may have been found.

B1: 2-Methoxy-6-polyprenyl-1,4-benzoquinol methylase, mitochondrial (protein, UniProt Q5HYK3 43-327)
chain: LSQEKRAAETHFGFETVSEEEKGGKVYQVFESVAKKYDVMNDMMSLGIHRVWKDLLLWKMHPLPGTQLLDVAGGTGDIAFRFLNYVQSQHQRKQKRQLRAQQNLSWEEIAKEYQNEEDSLGGSRVVVCDINKEMLKVGKQKALAQGYRAGLAWVLGDAEELPFDDDKFDIYTIAFGIRNVTHIDQALQEAHRVLKPGGRFLCLEFSQVNNPLISRLYDLYSFQVIPVLGEVIAGDWKSYQYLVESIRRFPSQEEFKDMIEDAGFHKVTYESLTSGIVAIHSGFKL
B1: the binding result is on record as “binds”.

B2: Probable ATP-dependent RNA helicase DDX47 (protein, UniProt Q9H0S4 1-455)
chain: MAAPEEHDSPTEASQPIVEEEETKTFKDLGVTDVLCEACDQLGWTKPTKIQIEAIPLALQGRDIIGLAETGSGKTGAFALPILNALLETPQRLFALVLTPTRELAFQISEQFEALGSSIGVQSAVIVGGIDSMSQSLALAKKPHIIIATPGRLIDHLENTKGFNLRALKYLVMDEADRILNMDFETEVDKILKVIPRDRKTFLFSATMTKKVQKLQRAALKNPVKCAVSSKYQTVEKLQQYYIFIPSKFKDTYLVYILNELAGNSFMIFCSTCNNTQRTALLLRNLGFTAIPLHGQMSQSKRLGSLNKFKAKARSILLATDVASRGLDIPHVDVVVNFDIPTHSKDYIHRVGRTARAGRSGKAITFVTQYDVELFQRIEHLIGKKLPGFPTQDDEVMMLTERVAEAQRFARMELREHGEKKKRSREDAGDNDDTEGAIGVRNKVAGGKMKKRKGR
Consider B2, for which the binding entry is listed as “binds”.

B3: 14-3-3 protein gamma (protein, UniProt P61981 1-247)
chain: MVDREQLVQKARLAEQAERYDDMAAAMKNVTELNEPLSNEERNLLSVAYKNVVGARRSSWRVISSIEQKTSADGNEKKIEMVRAYREKIEKELEAVCQDVLSLLDNYLIKNCSETQYESKVFYLKMKGDYYRYLAEVATGEKRATVVESSEKAYSEAHEISKEHMQPTHPIRLGLALNYSVFYYEIQNAPEQACHLAKTAFDDAIAELDTLNEDSYKDSTLIMQLLRDNLTLWTSDQQDDDGGEGNN
For the molecule B3, the binding result is given as “binds”.

B4: Zinc finger CCCH-type antiviral protein 1-like (protein, UniProt Q96H79 1-300)
chain: MAEPTVCSFLTKVLCAHGGRMFLKDLRGHVELSEARLRDVLQRAGPERFLLQEVETQEGLGDAEAEAAAGAVGGGGTSAWRVVAVSSVRLCARYQRGECQACDQLHFCRRHMLGKCPNRDCWSTCTLSHDIHTPVNMQVLKSHGLFGLNENQLRILLLQNDPCLLPEVCLLYNKGEALYGYCNLKDKCNKFHVCKSFVKGECKLQTCKRSHQLIHAASLKLLQDQGLNIPSVVNFQIISTYKHMKLHKMLENTDNSSPSTEHSQGLEKQGVHAAGAAEAGPLASVPAQSAKKPCPVSCEK
As to B4, the binding entry is “binds”.

B5: Keratinocyte proline-rich protein (protein, UniProt Q5T749 1-579)
chain: MCDQQQIQCRLPLQQCCVKGPSFCSSQSPFAQSQVVVQAPCEMQIVDCPASCPVQVCQVSDQAPCQSQTTQVKCQSKTKQVKGQAQCQSKTTQVKGQAASQSQTSSVQSQAPCQSEVSYVQCEASQPVQTCFVECAPVCYTETCYVECPVQNYVPCPAPQPVQMYRGRPAVCQPQGRFSTQCQYQGSYSSCGPQFQSRATCNNYTPQFQLRPSYSSCFPQYRSRTSFSPCVPQCQTQGSYGSFTEQHRSRSTSRCLPPPRRLQLFPRSCSPPRRFEPCSSSYLPLRPSEGFPNYCTPPRRSEPIYNSRCPRRPISSCSQRRGPKCRIEISSPCCPRQVPPQRCPVEIPPIRRRSQSCGPQPSWGASCPELRPHVEPRPLPSFCPPRRLDQCPESPLQRCPPPAPRPRLRPEPCISLEPRPRPLPRQLSEPCLYPEPLPALRPTPRPVPLPRPGQCEIPEPRPCLQPCEHPEPCPRPEPIPLPAPCPSPEPCRETWRSPSPCWGPNPVPYPGDLGCHESSPHRLDTEAPYCGPSSYNQGQESGAGCGPGDVFPERRGQDGHGDQGNAFAGVKGEAKSAYF
In the case of B5, the binding result is recorded as “binds”.

B6: Tripartite motif-containing protein 29 (protein, UniProt Q14134 1-588)
chain: MEAADASRSNGSSPEARDARSPSGPSGSLENGTKADGKDAKTTNGHGGEAAEGKSLGSALKPGEGRSALFAGNEWRRPIIQFVESGDDKNSNYFSMDSMEGKRSPYAGLQLGAAKKPPVTFAEKGELRKSIFSESRKPTVSIMEPGETRRNSYPRADTGLFSRSKSGSEEVLCDSCIGNKQKAVKSCLVCQASFCELHLKPHLEGAAFRDHQLLEPIRDFEARKCPVHGKTMELFCQTDQTCICYLCMFQEHKNHSTVTVEEAKAEKETELSLQKEQLQLKIIEIEDEAEKWQKEKDRIKSFTTNEKAILEQNFRDLVRDLEKQKEEVRAALEQREQDAVDQVKVIMDALDERAKVLHEDKQTREQLHSISDSVLFLQEFGALMSNYSLPPPLPTYHVLLEGEGLGQSLGNFKDDLLNVCMRHVEKMCKADLSRNFIERNHMENGGDHRYVNNYTNSFGGEWSAPDTMKRYSMYLTPKGGVRTSYQPSSPGRFTKETTQKNFNNLYGTKGNYTSRVWEYSSSIQNSDNDLPVVQGSSSFSLKGYPSLMRSQSPKAQPQTWKSGKQTMLSHYRPFYVNKGNGIGSNEAP
As to B6, the binding entry is “binds”.
